Data as given in article PMC7819943, “Rice protein-binding microarrays: a tool to detect cis-acting elements near promoter regions in rice”.
This is one part of the list.

biological target: T1, OsSMF1 (Oryza sativa, UniProt Q6ZLB0 1-436); assay: protein-binding microarray (RPBM); PBS, 2% BSA, 51.3 ng/ul salmon testes DNA, 50 uM zinc acetate, 200 nM TF, 25 C, 1 h; high values mean tight binding; conditions: protein: recombinant; tags: N-terminal polyhistidine and DsRed monomer fusion (pET32a); chain copies: 2; label: CyDye5-dUTP incorporated in the synthesized complementary strand; 3' TTTTT single-stranded linker to array surface; dsDNA, one strand shown
T1 sequence: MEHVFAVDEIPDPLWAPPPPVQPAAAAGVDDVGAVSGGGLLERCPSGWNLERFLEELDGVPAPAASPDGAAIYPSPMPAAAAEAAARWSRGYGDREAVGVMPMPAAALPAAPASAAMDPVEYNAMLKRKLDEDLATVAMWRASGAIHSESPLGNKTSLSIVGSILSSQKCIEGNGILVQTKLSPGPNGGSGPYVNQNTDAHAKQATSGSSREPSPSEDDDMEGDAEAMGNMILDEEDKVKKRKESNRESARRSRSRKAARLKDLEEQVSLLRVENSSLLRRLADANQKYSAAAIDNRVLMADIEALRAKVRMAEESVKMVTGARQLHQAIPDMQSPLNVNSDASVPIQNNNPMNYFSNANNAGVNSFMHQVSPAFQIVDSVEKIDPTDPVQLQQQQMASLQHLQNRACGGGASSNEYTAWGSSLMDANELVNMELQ
In short: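 In PBS with 2% BSA, salmon testes DNA and 50 µM zinc acetate, 200 nM protein was incubated on a custom Agilent array at 25 °C for 1 h and then washed off. The array had been made double-stranded by primer extension with Cy5-dUTP and blocked with 2% BSA. The proteins were transcription factors fused N-terminally to polyhistidine and DsRed, expressed in E. coli BL21-CodonPlus and purified on Ni–NTA. The binding signal is per-feature fluorescence intensity (arbitrary units) from an Axon 4000B scanner.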

Going from “ACTTATGACGATTAAAGTAACAGCGAGTAGTGAGTCAGTGCGGAGTCACCTAGTGCAG” to “GGAGCGAGCGACGACGGACGGACGGAGACCTATCGGGTGGCGGAGTCACCTAGTGCAG”, the binding signal rises from 6720 fluorescence intensity (a.u.) to 33300 fluorescence intensity (a.u.).

First: TATTTATTTATTTTAATAATGCCGACAGTGAAGGAAACGTCGGAGTCACCTAGTGCAG
Second: CTTGCTTGGGCCGACGGTTAGGCGATTGACATGTGGGCCACGGAGTCACCTAGTGCAG
The binding signal of the first is higher: 3800 fluorescence intensity (a.u.) for the first, 3320 fluorescence intensity (a.u.) for the second.

Going from “TTTTCTTCCTTAGTTTTATTTACAGAGCTGGACGTTGCCACGGAGTCACCTAGTGCAG” to “ATCTAACACTGCCTGCCAATGATCATGCATATACTAGTTACGGAGTCACCTAGTGCAG”, the binding signal rises from 3220 fluorescence intensity (a.u.) to 4520 fluorescence intensity (a.u.).

First: CACGGACTCGGCATCCCCGGGCCCACCAACACCGCCTCCGCGGAGTCACCTAGTGCAG
Second: ACCAAGGAACCCAAGTTCGCATTCACATATGAACAAATGCCGGAGTCACCTAGTGCAG
The binding signal of the first is higher: 3640 fluorescence intensity (a.u.) for the first, 3380 fluorescence intensity (a.u.) for the second.

Going from “ATGGGCCGGGGTTAATGTTTTGTGTCATTGTGTGTGAGACCGGAGTCACCTAGTGCAG” to “CACTAACTAGGCTGCCCCGTCATCTTCTTCCTCCCGACGACGGAGTCACCTAGTGCAG”, the binding signal rises from 3300 fluorescence intensity (a.u.) to 11200 fluorescence intensity (a.u.).

Going from “TGGCCTTCTCTGACTCTGCCTCTTCTTCCAAACCAAGCCACGGAGTCACCTAGTGCAG” to “GAAGTCCAAACCAGAAACCGAACCAAAACCCACGTCAGAACGGAGTCACCTAGTGCAG”, the binding signal rises from 3170 fluorescence intensity (a.u.) to 8790 fluorescence intensity (a.u.).

Going from “CACCCCTGCTGATGCGTCGCCGCCACCTTCTCTCCTTCCCCGGAGTCACCTAGTGCAG” to “GGGCCCTAGATCCCATTTCGCCGACAAATACTACCTCATGCGGAGTCACCTAGTGCAG”, the binding signal rises from 4220 fluorescence intensity (a.u.) to 27600 fluorescence intensity (a.u.).

Going from “TGAGACATAGCAAACTCGCTAAAAGAGACCGTAATTAACCCGGAGTCACCTAGTGCAG” to “TGGTGCTGGTCCTCAACATGCATGTGCTATGGCAAGATCCCGGAGTCACCTAGTGCAG”, the binding signal rises from 3310 fluorescence intensity (a.u.) to 42800 fluorescence intensity (a.u.).

First: TATCACATATGAGTTGATGACATGATTACTTGGGTTATCACGGAGTCACCTAGTGCAG
Second: CCGCCGACTCGACGCCACCACGTCGCCTCGCTGCGGCCGTCGGAGTCACCTAGTGCAG
The binding signal of the first is lower: 3270 fluorescence intensity (a.u.) for the first, 5370 fluorescence intensity (a.u.) for the second.

First: TTATCAAAGCAAGCGGAATGGTGATGTACACTGACTCAACCGGAGTCACCTAGTGCAG
Second: TGGGCGCGGGAACGTGTCGCCGACACGTGGGGTCCCAGCCCGGAGTCACCTAGTGCAG
The binding signal of the first is lower: 3730 fluorescence intensity (a.u.) for the first, 5660 fluorescence intensity (a.u.) for the second.

Going from “GTTCTTAGTCTTTATTTACCTTGTAAAGTGAGGAGATTAACGGAGTCACCTAGTGCAG” to “CGCCCCACCTCGCCGACTCAGCTCCGGTGGCGCAGGATGACGGAGTCACCTAGTGCAG”, the binding signal falls from 22500 fluorescence intensity (a.u.) to 3220 fluorescence intensity (a.u.).

Compared with “ATAGTGGGCCCGCGCTGTCACGGGCACGTGGGCGGTGCACCGGAGTCACCTAGTGCAG”, “CTAGATCTAAATTTTAGAACCACGTAAGGAGTTCATACTTCGGAGTCACCTAGTGCAG” is lower in binding signal: 5200 fluorescence intensity (a.u.) for the first, 3720 fluorescence intensity (a.u.) for the second.

First: TCACTCACCACTAACCGCAAAACTCAAACATCACCTATCCCGGAGTCACCTAGTGCAG
Second: TTTATGGCCACAATACCTAAGGGAATATGGCACGTGGCAACGGAGTCACCTAGTGCAG
The binding signal of the first is lower: 4040 fluorescence intensity (a.u.) for the first, 5400 fluorescence intensity (a.u.) for the second.

Compared with “CGAGGATTTGAGATCTGAGATGGCACGGACACTAGACAACCGGAGTCACCTAGTGCAG”, “ATACTGTCGAACAAGTTTGAGAACCTGAACAGTCGATTTGCGGAGTCACCTAGTGCAG” is lower in binding signal: 3440 fluorescence intensity (a.u.) for the first, 3280 fluorescence intensity (a.u.) for the second.

Compared with “TGAATAATATATACGTGTATGTTCTTAGCGATCTAAACGCCGGAGTCACCTAGTGCAG”, “TTCGAAGATGCTCATAGGGGTAGGGTTTGCGTGCGTGTGTCGGAGTCACCTAGTGCAG” is higher in binding signal: 3390 fluorescence intensity (a.u.) for the first, 3720 fluorescence intensity (a.u.) for the second.

First: AAGGTGACGTCAATTTTAACATGAATATGACGTCATTACTCGGAGTCACCTAGTGCAG
Second: CCGTCAGTAAACCACGAGATAAATTTATTAAGCCTAATTACGGAGTCACCTAGTGCAG
The binding signal of the first is higher: 14000 fluorescence intensity (a.u.) for the first, 3230 fluorescence intensity (a.u.) for the second.

Going from “CTCGCGCGCCCCGCCCGTTTCGCCTCGGCCGCCTCCTCCACGGAGTCACCTAGTGCAG” to “ATTGCGACGTTTCTTCAGGTGACGAAAAGCCTGACGAGTACGGAGTCACCTAGTGCAG”, the binding signal rises from 3940 fluorescence intensity (a.u.) to 4120 fluorescence intensity (a.u.).

Compared with “ACCTCGTTTTGCGTATCTTCTCAATCTACTCAATCCACTTCGGAGTCACCTAGTGCAG”, “GCGTAGGCCGTGTGACGGCGTGACACCACCACTGACCACCCGGAGTCACCTAGTGCAG” is lower in binding signal: 15300 fluorescence intensity (a.u.) for the first, 5030 fluorescence intensity (a.u.) for the second.

First: GATGGGACTTAACATGCAGTTCAGGCCATATGCATTTCTGCGGAGTCACCTAGTGCAG
Second: TGTATCTAACGTGTTGCGTTGTGAATGTAGGTGAATCTGTCGGAGTCACCTAGTGCAG
The binding signal of the first is higher: 34000 fluorescence intensity (a.u.) for the first, 4490 fluorescence intensity (a.u.) for the second.

Going from “ATTACTTATGTTTTCACTGAAATAGCATGCCACCTAGGGACGGAGTCACCTAGTGCAG” to “TGGACACTTGGTGTTTTCATGGTTTTGTTAGTAAACTTTGCGGAGTCACCTAGTGCAG”, the binding signal rises from 3150 fluorescence intensity (a.u.) to 36700 fluorescence intensity (a.u.).

Compared with “TTTTGCTGACTAGGATGCCACATCATCAAAACTAGCCATGCGGAGTCACCTAGTGCAG”, “CGAAACTGATATGGTGTACGCTGTCACCGAATACTATCTCCGGAGTCACCTAGTGCAG” is lower in binding signal: 35000 fluorescence intensity (a.u.) for the first, 3830 fluorescence intensity (a.u.) for the second.

Compared with “TCGGTGACGTAGTGAGTGACGCACGCTGTTGCAGTGCTCTCGGAGTCACCTAGTGCAG”, “AAAAGTCAATGACGTCAGATATTTAGGGACGGAGAGTATACGGAGTCACCTAGTGCAG” is higher in binding signal: 4640 fluorescence intensity (a.u.) for the first, 9290 fluorescence intensity (a.u.) for the second.

First: TTTGTTATGGCTAAACGATACATCTTACTGTAGTAATTTGCGGAGTCACCTAGTGCAG
Second: AGTTGTCAACTTGTGACGATGTGCGTTGCTTTTGAGTTGGCGGAGTCACCTAGTGCAG
The binding signal of the first is higher: 6840 fluorescence intensity (a.u.) for the first, 4280 fluorescence intensity (a.u.) for the second.

First: AGAGGGCAATGAGACTGACGATGTCACCGATGACGATATTCGGAGTCACCTAGTGCAG
Second: AGAGTACAGAGGATACTCTGACTCATACTCTCTACGTCCACGGAGTCACCTAGTGCAG
The binding signal of the first is lower: 3420 fluorescence intensity (a.u.) for the first, 7380 fluorescence intensity (a.u.) for the second.

Compared with “CGCTCAATTCCGCTTTAATTTGGTGACTTGGCGATCGATCCGGAGTCACCTAGTGCAG”, “ACTCCAATGATGTGGCATTGAAGAGATCACCTGGGAGAGGCGGAGTCACCTAGTGCAG” is higher in binding signal: 4420 fluorescence intensity (a.u.) for the first, 8140 fluorescence intensity (a.u.) for the second.

Going from “GCCGGCTGCGTTCTTTTGAAACAAAATTTTCCCTTTGGACCGGAGTCACCTAGTGCAG” to “CGCCCAGCTCATGCACTGCTACCTGTATAGTACGTGTACACGGAGTCACCTAGTGCAG”, the binding signal rises from 3860 fluorescence intensity (a.u.) to 3870 fluorescence intensity (a.u.).

Going from “GGTGAACAGTACGTCACGATATGTTAGAGGATCCTCTTCCCGGAGTCACCTAGTGCAG” to “GTGGAACCGCTGACACGATGTCATCTTCAGAAATGAGCAACGGAGTCACCTAGTGCAG”, the binding signal falls from 6070 fluorescence intensity (a.u.) to 3180 fluorescence intensity (a.u.).
